Among the data in article PMC7862700 are binding signal values, retold here.

By UniProt entry, the sequences of proteins in these tests, tags left out. Where a name states a change or a piece, a line headed by the entry shows the natural chain unless it says otherwise.
UniProt P41212: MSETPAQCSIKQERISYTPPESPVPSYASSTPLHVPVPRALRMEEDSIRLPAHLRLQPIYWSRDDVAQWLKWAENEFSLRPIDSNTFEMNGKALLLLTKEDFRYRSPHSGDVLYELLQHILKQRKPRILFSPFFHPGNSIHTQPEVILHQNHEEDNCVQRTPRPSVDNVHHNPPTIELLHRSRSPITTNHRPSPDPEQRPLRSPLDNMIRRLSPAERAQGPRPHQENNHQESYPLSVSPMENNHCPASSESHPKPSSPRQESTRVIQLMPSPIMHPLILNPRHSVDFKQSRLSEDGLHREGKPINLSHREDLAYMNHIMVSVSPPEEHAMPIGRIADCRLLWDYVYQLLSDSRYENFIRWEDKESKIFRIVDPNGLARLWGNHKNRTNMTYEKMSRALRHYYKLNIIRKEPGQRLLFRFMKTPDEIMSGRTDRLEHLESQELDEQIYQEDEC

This is a selection; strong and weak results do not stand in their true shares. At the low end of the ranking the order means little.

The target in this experiment is ETV6 (UniProt P41212). Nature of the experiment: DAPPL (digital affinity profiling via proximity ligation, sequencing). The conditions noted are these: 10 mM Tris-HCl pH 7.5, 50 mM NaCl, 1 mM DTT, 4% glycerol, room temperature, 30 min; GST-TFs on glutathione beads, 16-mer random dsDNA library, 0.1% …; high values mean tight binding; double strand, one strand shown; scale: fold enrichment (6-mer frequency, TF over GST control).
Consider ATTTTG, for which the binding signal worked out at 1.24.

In turn, GATATG returned a binding signal of 1.04.

Take TGTGCC: the binding signal is 1.21.

Regarding TCTTTC, the binding signal amounted to 1.38.

Regarding CGATGC, the binding signal stood at 0.993.

With CGGTTT, the binding signal is 1.23.

CCCCCC: the binding signal came to 1.06.

Regarding TCCCGG, the binding signal was found to be 2.46.

GGAAAT gave a binding signal of 3.32.

As to ACATTT, the binding signal is 1.56.

In the case of GGCTAC, the binding signal was 1.2.

For the sequence TTTATC, the binding signal came to 1.24.

CGTTTA displayed a binding signal of 1.14.

Sequence GCTTAC yielded a binding signal of 1.03.

As to TAGACA, the binding signal worked out at 0.95.

In turn, CATCCT gave a binding signal of 1.65.

The sequence TGGCTG yielded a binding signal of 1.02.

As for AAAAAT, the binding signal is 1.35.

ACCTTG gave a binding signal of 1.17.

Regarding CCTCCA, the binding signal came to 1.29.

For CTCGCT, the binding signal stood at 1.64.

In the case of CTGCGG, the binding signal came to 1.09.

In turn, GATCAT showed a binding signal of 0.94.

Consider TTTGCC, for which the binding signal turned out to be 1.11.

Regarding CAAAAG, the binding signal came out at 1.01.

CGTTGC showed a binding signal of 1.04.

For the sequence GCGCTT, the binding signal was determined as 1.33.

Sequence CACCCG registered a binding signal of 1.11.

For CGACAA, the binding signal was 1.31.

In turn, CTATTT showed a binding signal of 1.9.

TCCAAG registered a binding signal of 1.03.

On to CTCCCA, for which the binding signal is 1.46.

The sequence AATCCG gave a binding signal of 1.49.

For the sequence TTACGT, the binding signal is 1.09.

Regarding CCTGCC, the binding signal is 1.36.

Sequence TTGGGC displayed a binding signal of 1.11.

CAAGCC came in with a binding signal of 0.943.

For the sequence ACAGGA, the binding signal turned out to be 1.19.

Sequence TATGGG showed a binding signal of 1.34.

Sequence CTTAAC had a binding signal of 1.29.
